# PubChem BioAssay AID1508588 – Peter MacCallum Cancer Centre – 2020
# Test: 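Which gene losses make BRAF-mutant melanoma cells more responsive to vemurafenib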 (primary screen)
# System: human WM266.4 melanoma cells (BRAF V600 mutant)
# Knock-down reagent: siRNA pool against human genes, 40 nM
# Timing: 96 h from transfection to read-out
# Treatment: vemurafenib 300 nM (about IC25), added 48 h after transfection, for 48 h; comparison arm got DMSO vehicle only
# Detection: 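Ratios to non-targeting siRNA for cell gain, counted as DAPI nuclei after minus before drug and averaged over two replicates, and for absorbance-read medium lactate per cell; both binned into fold-change classes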
# Direction: cell gain with vemurafenib: higher = more cell gain than with non-targeting siRNA; lactate per cell with vemurafenib: higher = more lactate made per cell
# Call rule: 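Enhancement is called by pairing each knock-down's vehicle-arm and drug-arm fold-change classes for viability or glycolysis; which class combinations qualify is not given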
# Meaning of the calls: active = enhances vemurafenib effect; inactive = no enhancement seen
# This is an unselected part of about 18,000 deposited reagents. In the full data, 790 (4.4%) are marked active. 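Calls rest on a combination of fold-change classes in drug and vehicle arms, not all shown here.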 Reagent sequences are not shown.
gene symbol,PubChem SID,cell gain with vemurafenib,lactate per cell with vemurafenib,activity call
BIN3 (bridging integrator 3),SID152155331,0.91,0.78,inactive
IL4I1 (interleukin 4 induced 1),SID134313035,0.57,1.38,inactive
MC3R (melanocortin 3 receptor),SID135621048,0.34,0.9,inactive
LIG4 (DNA ligase 4),SID134310340,0.61,0.61,inactive
SMC1B (structural maintenance of chromosomes 1B),SID152155063,0.88,0.82,inactive
GPR148 (G protein-coupled receptor 148),SID152147909,0.35,0.66,inactive
SLC25A32,SID134312404,0.64,2.01,inactive
NSD2 (nuclear receptor binding SET domain protein 2),SID134311890,0.97,0.8,inactive
ABCA9 (ATP binding cassette subfamily A member 9),SID152151766,0.92,0.86,inactive
TMED8 (transmembrane p24 trafficking protein family member 8),SID152152741,0.32,0.71,inactive
CORO2A (coronin 2A),SID134315760,0.11,1.78,inactive
FAM234A (family with sequence similarity 234 member A),SID134318875,0.75,0.7,inactive
USP8 (ubiquitin specific peptidase 8),SID134310802,0.81,0.88,inactive
DNAAF3 (dynein axonemal assembly factor 3),SID135623391,0.91,0.68,inactive
SKOR1 (SKI family transcriptional corepressor 1),SID152147062,0.95,0.86,inactive
CEP120 (centrosomal protein 120),SID152152566,0.37,0.3,active
TRH (thyrotropin releasing hormone),SID134323406,0.55,1.11,inactive
PRSS21 (serine protease 21),SID135620726,0.4,0.52,inactive
SELENOT (selenoprotein T),SID134310707,0.18,1.16,inactive
S100A3 (S100 calcium binding protein A3),SID134316085,0.29,2.87,inactive
LECT2 (leukocyte cell derived chemotaxin 2),SID152150365,0.91,1.1,inactive
PAK4 (p21 (RAC1) activated kinase 4),SID152147637,0.63,0.65,inactive
"XPA (XPA, DNA damage recognition and repair factor)",SID152153264,0.9,0.77,inactive
WBP11 (WW domain binding protein 11),SID134317572,0.22,2,inactive
NDFIP2 (Nedd4 family interacting protein 2),SID135624244,0.72,0.8,inactive
NUDCD1 (NudC domain containing 1),SID135623472,0.8,0.65,inactive
WASL (WASP like actin nucleation promoting factor),SID152154783,0.78,0.67,inactive
LUZP4 (leucine zipper protein 4),SID152152068,0.33,0.3,active
H2BC3 (H2B clustered histone 3),SID134317373,0.56,0.64,inactive
GGPS1 (geranylgeranyl diphosphate synthase 1),SID135623152,1.04,0.49,inactive
RYK (receptor like tyrosine kinase),SID152147158,0.92,1.02,inactive
DEUP1 (deuterosome assembly protein 1),SID152154556,0.58,1.36,inactive
"RBBP7 (RB binding protein 7, chromatin remodeling factor)",SID135622113,0.7,0.62,inactive
PAQR5 (progestin and adipoQ receptor family member 5),SID135621492,0.97,0.36,inactive
EGR3 (early growth response 3),SID134311852,0.56,0.83,inactive
SERPINF1 (serpin family F member 1),SID152149788,0.49,1.67,inactive
MNT (MAX network transcriptional repressor),SID152153576,0.31,1.54,inactive
USP22 (ubiquitin specific peptidase 22),SID135621138,0.57,1,inactive
ATP1A1 (ATPase Na+/K+ transporting subunit alpha 1),SID135621146,0.86,0.83,inactive
TMEM134 (transmembrane protein 134),SID135622773,0.5,2.16,inactive
C2orf69 (chromosome 2 open reading frame 69),SID152150788,0.32,1.64,inactive
BMPER (BMP binding endothelial regulator),SID135624220,0.04,1.12,inactive
KCNH5 (potassium voltage-gated channel subfamily H member 5),SID134311653,0.53,1.72,inactive
SLC35G1,SID134320486,0.65,0.45,inactive
CDCA7 (cell division cycle associated 7),SID152149106,0.57,1.4,inactive
KCNK4 (potassium two pore domain channel subfamily K member 4),SID152154103,0.18,0.78,inactive
TMED6 (transmembrane p24 trafficking protein 6),SID152148163,1,0.46,inactive
TBC1D26 (TBC1 domain family member 26),SID135623514,0.47,1.36,inactive
ZNG1F (Zn regulated GTPase metalloprotein activator 1F),SID135625701,0.93,0.4,inactive
ANKRD53 (ankyrin repeat domain 53),SID134318661,0.48,1.48,inactive
"DSTN (destrin, actin depolymerizing factor)",SID152153228,1.06,0.66,inactive
CD8A (CD8 subunit alpha),SID152152225,0.71,1.34,inactive
CLCN2 (chloride voltage-gated channel 2),SID152147109,0.59,0.38,inactive
RNF7 (ring finger protein 7),SID135621268,1.02,0.94,inactive
EEPD1,SID152154588,0.59,0.59,inactive
"MYCN (MYCN proto-oncogene, bHLH transcription factor)",SID152155014,1.35,0.82,inactive
ANKIB1 (ankyrin repeat and IBR domain containing 1),SID152152950,1.05,0.9,inactive
OR10AD1 (olfactory receptor family 10 subfamily AD member 1),SID152150449,0.33,1.02,inactive
CSRP2 (cysteine and glycine rich protein 2),SID135622088,-0.04,1.75,inactive
GZMA (granzyme A),SID135621093,0.68,0.96,inactive
FOXQ1 (forkhead box Q1),SID152148541,0.73,0.96,inactive
PNLIPRP2 (pancreatic lipase related protein 2 (gene/pseudogene)),SID152148180,0.83,1.05,inactive
TMEM184B (transmembrane protein 184B),SID152153460,1.1,0.8,inactive
OLIG1 (oligodendrocyte transcription factor 1),SID134329296,0.17,2.23,inactive
WNT16 (Wnt family member 16),SID134315263,1.17,1.18,inactive
TAOK1 (TAO kinase 1),SID152151735,0.65,0.71,inactive
CGB1 (chorionic gonadotropin subunit beta 1),SID135622568,0.5,1.61,inactive
ODAD1 (outer dynein arm docking complex subunit 1),SID134320366,0.55,1.26,inactive
CDKN1C (cyclin dependent kinase inhibitor 1C),SID56478604,0.65,0.77,inactive
CCDC187 (coiled-coil domain containing 187),SID134329235,0.37,1.01,inactive
GDF10 (growth differentiation factor 10),SID135622235,0.77,0.73,inactive
MIMS2 (mitochondrial inner membrane structural 2),SID152149795,0.23,0.93,inactive
RET (ret proto-oncogene),SID135620630,0.8,0.76,inactive
CYSLTR1 (cysteinyl leukotriene receptor 1),SID135620996,1.13,1,inactive
PRKRIP1 (PRKR interacting protein 1),SID152153275,0.18,0.72,inactive
LARGE1 (LARGE xylosyl- and glucuronyltransferase 1),SID152150254,0.45,0.64,inactive
INSC (INSC spindle orientation adaptor protein),SID152154919,0.92,0.58,inactive
"COQ6 (coenzyme Q6, monooxygenase)",SID135621867,1.03,0.4,inactive
SAMD14 (sterile alpha motif domain containing 14),SID134321714,0.85,0.86,inactive
CLEC18C (C-type lectin domain family 18 member C),SID135623483,0.93,0.68,inactive
USP42 (ubiquitin specific peptidase 42),SID135621140,0.94,0.66,inactive
KCNJ2 (potassium inwardly rectifying channel subfamily J member 2),SID134311665,0.87,0.57,inactive
P2RX1 (purinergic receptor P2X 1),SID134310742,0.36,0.72,inactive
OR10G9 (olfactory receptor family 10 subfamily G member 9),SID135624577,0.59,1.85,inactive
KDM6A (lysine demethylase 6A),SID134318317,0.84,1.11,inactive
SLF1 (SMC5/6 complex localization factor 1),SID152148954,0.32,0.86,inactive
CAPZB (capping actin protein of muscle Z-line subunit beta),SID152154611,0.3,0.95,inactive
DYNC1H1 (dynein cytoplasmic 1 heavy chain 1),SID152148907,0.64,0.91,inactive
PPP2R2B (protein phosphatase 2 regulatory subunit Bbeta),SID135620608,0.89,0.72,inactive
DRD1 (dopamine receptor D1),SID152154459,0.52,0.68,inactive
IL2RG (interleukin 2 receptor subunit gamma),SID135621483,0.79,0.5,inactive
SGK3 (serum/glucocorticoid regulated kinase family member 3),SID56478777,0.47,1.64,inactive
APBB1 (amyloid beta precursor protein binding family B member 1),SID135622077,-0.11,1.44,inactive
SYNE3 (spectrin repeat containing nuclear envelope family member 3),SID152152796,0.06,0.64,inactive
"TLE5 (TLE family member 5, transcriptional modulator)",SID135622262,0.67,1.34,inactive
CHP2 (calcineurin like EF-hand protein 2),SID152151350,0.89,0.47,inactive
WEE1 (WEE1 G2 checkpoint kinase),SID152152823,0.36,1.36,inactive
MRPS2 (mitochondrial ribosomal protein S2),SID135622460,0.28,2.13,inactive
CNOT7 (CCR4-NOT transcription complex subunit 7),SID152156507,0.65,0.94,inactive
TMEM217 (transmembrane protein 217),SID134322593,0.12,0.18,active
"ABHD16A (abhydrolase domain containing 16A, phospholipase)",SID135622456,0.4,1.29,inactive
GSPT2 (G1 to S phase transition 2),SID134324107,0.55,1.51,inactive
SDC3 (syndecan 3),SID135624010,0.4,1.49,inactive
MROH8 (maestro heat like repeat family member 8),SID152150571,0.18,0.14,active
TGFBRAP1,SID152148865,1.08,1.01,inactive
DDIAS (DNA damage induced apoptosis suppressor),SID134312280,0.76,0.8,inactive
RNF40 (ring finger protein 40),SID134312041,0.78,0.95,inactive

Limited to “lactate per cell with vemurafenib”, for 5 of the entries above:
TMED8 (transmembrane p24 trafficking protein family member 8) [SID152152741]	0.71
CORO2A (coronin 2A) [SID134315760]	1.78
FAM234A (family with sequence similarity 234 member A) [SID134318875]	0.7
USP8 (ubiquitin specific peptidase 8) [SID134310802]	0.88
DNAAF3 (dynein axonemal assembly factor 3) [SID135623391]	0.68
